Data on seven molecules can be found in PubChem BioAssay AID342 (DTP/NCI, 2004).

Each structure is given as a SMILES string. The list shows only some results of the screen, not a fair sample: its compounds were picked by chemical class. Not every dose and run of a compound is shown. T/C: endpoint of the treated group in % of that of the vehicle group. Some entries show no survivor count and are marked so; the dose need not have been tolerated. Schedule codes are those of the source, read here as Q, the interval in days (D) or hours (H), X, the number of doses. Some schedules carry Z or #; the key to these is not given. Additions like (4×) count equal records among those shown. Some entries hold several experiments; their values stand side by side, smallest first.

The test has as its system Swiss mice, Sarcoma 180 sc, mean tumor weight T/C. Put plainly: NCI In Vivo Anticancer Drug Screen. Data for tumor model Sarcoma 180 (subcutaneous) in Swiss mice. Particulars: T/C endpoint: mean tumor weight, schedule: Q#A X014 (ip), evaluation day not shown, higher T/C = larger tumour. How it is done:
The antitumor activity of compounds was measured in mice bearing transplantable tumors. Survival or tumor size were measured and the results are expressed as the measurement made in the treated group (T) divided by the measurement made in the vehicle treated control group (C). The tumor model used in this assay is Sarcoma 180 (subcutaneous) in Swiss mice

The mark [1] stands for this setting: dose: 15.5 mg/kg/injection, vehicle: methylcellulose (MC).
The mark [2] stands for this setting: dose: 6.5 mg/kg/injection, vehicle: methylcellulose (MC).
[3] abbreviates: dose: 10.0 mg/kg/injection, vehicle: methylcellulose (MC).
Where [4] appears, read: dose: 15.0 mg/kg/injection, vehicle: methylcellulose (MC).

As to `CCCCOc1ccccc1N(CCCl)CCCl`, the T/C (dose: 6.8 mg/kg/injection, vehicle: methylcellulose (MC)) was 71 % of control [survivor count not shown]; the T/C (dose: 10.4 mg/kg/injection, vehicle: methylcellulose (MC)) was 81 % of control [survivor count not shown]; the T/C under setting [1] is 75 % of control [survivor count not shown]; the T/C (dose: 23.25 mg/kg/injection, vehicle: methylcellulose (MC)) was 74 % of control [survivor count not shown].
As to `O=C(O)COc1cccc(N(CCCl)CCCl)c1`, the T/C was 107 % of control [survivor count not shown] under setting [2]; 77 % of control [survivor count not shown] under setting [3]; 53 % of control [survivor count not shown] under setting [4]; 37 % of control [survivor count not shown] (dose: 22.0 mg/kg/injection, vehicle: methylcellulose (MC)); 67 [survivor count not shown] and 89 % of control [survivor count not shown] (dose: 22.5 mg/kg/injection, vehicle: methylcellulose (MC)); 13 % of control [survivor count not shown] (dose: 33.0 mg/kg/injection, vehicle: methylcellulose (MC)). The T/C runs as follows: (dose: 33.5 mg/kg/injection, vehicle: methylcellulose (MC)) 67 % of control [survivor count not shown]; (dose: 50.0 mg/kg/injection, vehicle: methylcellulose (MC)) 9 [survivor count not shown] and 37 % of control [survivor count not shown]; (dose: 75.0 mg/kg/injection, vehicle: methylcellulose (MC)) 11 % of control [survivor count not shown] (2×).
With `O[C@@H](CNCCCl)[C@@H](O)CNCCCl`, the T/C is 68 % of control [survivor count not shown] (dose: 3.5 mg/kg/injection, vehicle: saline); 50 % of control [survivor count not shown] (dose: 5.5 mg/kg/injection, vehicle: saline); 43 % of control [survivor count not shown] (dose: 8.12 mg/kg/injection, vehicle: saline); 34 % of control [survivor count not shown] (dose: 12.5 mg/kg/injection, vehicle: saline).
As to `O=C(O)CCOc1cccc(N(CCCl)CCCl)c1`, the T/C was 41 % of control [survivor count not shown] under setting [1]; 62 % of control [survivor count not shown] (dose: 15.5 mg/kg/injection, vehicle: saline); 11 % of control [survivor count not shown] (dose: 23.5 mg/kg/injection, vehicle: methylcellulose (MC)); 24 % of control [survivor count not shown] (dose: 23.5 mg/kg/injection, vehicle: saline); 23 % of control [survivor count not shown] (dose: 35.0 mg/kg/injection, vehicle: saline); 9 % of control [survivor count not shown] (dose: 52.5 mg/kg/injection, vehicle: saline).
On to `O=C(O)C(=O)Cc1ccc(N(CCCl)CCCl)cc1`, for which the T/C runs as follows: under setting [2], 36 [survivor count not shown] and 77 % of control [survivor count not shown]; under setting [3], 12 [survivor count not shown] and 15 % of control [survivor count not shown]; under setting [4], 7 % of control [survivor count not shown].
On to `ClCCNC(CCl)CCl`, for which the T/C is 50 % of control [survivor count not shown] (dose: 20.0 mg/kg/injection, vehicle: carboxymethylcellulose (CMC)); 43 % of control [survivor count not shown] (dose: 30.0 mg/kg/injection, vehicle: carboxymethylcellulose (CMC)); 39 % of control [survivor count not shown] (dose: 47.5 mg/kg/injection, vehicle: carboxymethylcellulose (CMC)); 29 % of control [survivor count not shown] (dose: 70.0 mg/kg/injection, vehicle: carboxymethylcellulose (CMC)).
For `COc1cccc(N(CCCl)CCCl)c1OC`, the T/C was 90 % of control [survivor count not shown] (dose: 8.0 mg/kg/injection, vehicle: carboxymethylcellulose (CMC)); 102 % of control [survivor count not shown] (dose: 12.0 mg/kg/injection, vehicle: carboxymethylcellulose (CMC)); 99 % of control [survivor count not shown] (dose: 18.0 mg/kg/injection, vehicle: carboxymethylcellulose (CMC)); 113 % of control [survivor count not shown] (dose: 27.0 mg/kg/injection, vehicle: carboxymethylcellulose (CMC)); 68 % of control [survivor count not shown] (dose: 41.0 mg/kg/injection, vehicle: carboxymethylcellulose (CMC)).
